The supplement of paper PMC8728848
This is one part of the list.

Experiments:
Experiment in all cases: glycan array binding signal (z-score within array); higher = stronger binding
Settings in all cases: glycan notation: IUPAC condensed, linker removed
[1] = molecular target: Fuc(a1-2)Gal(b1-4)GlcNAc(b1-3)Gal(b1-4)GlcNAc(b1-2)Man(a1-3)[Fuc(a1-2)Gal(b1-4)GlcNAc(b1-3)Gal(b1-4)GlcNAc(b1-2)Man(a1-6)]Man(b1-4)GlcNAc(b1-4)GlcNAc
How it was run: (§1)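 Glycan array data were curated from 3228 arrays in the Consortium for Functional Glycomics database and kept only where the protein sequence was available. Glycan names were converted to IUPAC-condensed notation, and columns mapping to the same glycan were averaged. The binding signal is a within-array Z-score, averaged across arrays of the same protein sequence at different concentrations or buffers and across linkers. Negative Z-scores can be read as non-binding.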

[2] = molecular target: Fuc(a1-2)Gal(b1-4)GlcNAc(b1-3)Gal(b1-4)GlcNAc(b1-3)Gal(b1-4)GlcNAc
How it was run: as §1

[3] = molecular target: Fuc(a1-2)Gal(b1-4)GlcNAc(b1-3)GalNAc
How it was run: as §1

[4] = molecular target: Fuc(a1-2)Gal(b1-4)GlcNAc(b1-3)[Fuc(a1-2)Gal(b1-4)GlcNAc(b1-6)]GalNAc
How it was run: as §1

[5] = molecular target: Fuc(a1-2)Gal(b1-4)GlcNAc(b1-3)[Fuc(a1-3)[Gal(b1-4)]GlcNAc(b1-6)]Gal(b1-4)Glc
How it was run: as §1

[6] = molecular target: Fuc(a1-2)Gal(b1-4)GlcNAc(b1-6)GalNAc
How it was run: as §1

[7] = molecular target: Fuc(a1-2)Gal(b1-4)GlcNAc6S
How it was run: as §1

[8] = molecular target: Fuc(a1-2)Gal(b1-4)[Fuc(a1-3)]GlcNAc
How it was run: as §1

[9] = molecular target: Fuc(a1-2)Gal(b1-4)[Fuc(a1-3)]GlcNAc(b1-2)Man(a1-3)[Fuc(a1-2)Gal(b1-4)[Fuc(a1-3)]GlcNAc(b1-2)Man(a1-6)]Man(b1-4)GlcNAc(b1-4)[Fuc(a1-6)]GlcNAc
How it was run: as §1

[10] = molecular target: Fuc(a1-2)Gal(b1-4)[Fuc(a1-3)]GlcNAc(b1-2)[Fuc(a1-2)Gal(b1-4)[Fuc(a1-3)]GlcNAc(b1-4)]Man(a1-3)[Fuc(a1-2)Gal(b1-4)[Fuc(a1-3)]GlcNAc(b1-2)Man(a1-6)]Man(b1-4)GlcNAc(b1-4)GlcNAc
How it was run: as §1

[11] = molecular target: Fuc(a1-2)Gal(b1-4)[Fuc(a1-3)]GlcNAc(b1-3)Gal(b1-4)[Fuc(a1-3)]GlcNAc
How it was run: as §1

[12] = molecular target: Fuc(a1-2)Gal(b1-4)[Fuc(a1-3)]GlcNAc(b1-3)Gal(b1-4)[Fuc(a1-3)]GlcNAc(b1-3)Gal(b1-4)[Fuc(a1-3)]GlcNAc
How it was run: as §1

[13] = molecular target: Fuc(a1-2)Gal(b1-4)[Fuc(a1-3)]GlcNAc(b1-3)GalNAc
How it was run: as §1

[14] = molecular target: Fuc(a1-2)Gal(b1-4)[Fuc(a1-3)]GlcNAc(b1-3)[Neu5Ac(a2-6)Gal(b1-4)GlcNAc(b1-6)]Gal(b1-4)Glc
How it was run: as §1

[15] = molecular target: Fuc(a1-2)Gal3S(b1-4)GlcNAc
How it was run: as §1

[16] = molecular target: Fuc(a1-2)Gal6S(b1-3)GlcNAc
How it was run: as §1

[17] = molecular target: Fuc(a1-2)Gal6S(b1-3)GlcNAc6S
How it was run: as §1

[18] = molecular target: Fuc(a1-2)Gal6S(b1-4)Glc
How it was run: as §1

[19] = molecular target: Fuc(a1-2)Gal6S(b1-4)Glc6S
How it was run: as §1

[20] = molecular target: Fuc(a1-2)[Gal(a1-3)]Gal
How it was run: as §1

[21] = molecular target: Fuc(a1-2)[Gal(a1-3)]Gal(b1-3)GalNAc
How it was run: as §1

[22] = molecular target: Fuc(a1-2)[Gal(a1-3)]Gal(b1-3)GalNAc(b1-3)Gal(a1-4)Gal(b1-4)Glc
How it was run: as §1

[23] = molecular target: Fuc(a1-2)[Gal(a1-3)]Gal(b1-3)GlcNAc
How it was run: as §1

[24] = molecular target: Fuc(a1-2)[Gal(a1-3)]Gal(b1-3)GlcNAc(b1-2)Man(a1-3)[Fuc(a1-2)[Gal(a1-3)]Gal(b1-3)GlcNAc(b1-2)Man(a1-6)]Man(b1-4)GlcNAc(b1-4)GlcNAc
How it was run: as §1

[25] = molecular target: Fuc(a1-2)[Gal(a1-3)]Gal(b1-3)GlcNAc(b1-2)Man(a1-3)[Fuc(a1-2)[Gal(a1-3)]Gal(b1-3)GlcNAc(b1-2)Man(a1-6)]Man(b1-4)GlcNAc(b1-4)[Fuc(a1-6)]GlcNAc
How it was run: as §1

[26] = molecular target: Fuc(a1-2)[Gal(a1-3)]Gal(b1-3)GlcNAc(b1-3)GalNAc
How it was run: as §1

[27] = molecular target: Fuc(a1-2)[Gal(a1-3)]Gal(b1-3)GlcNAc(b1-6)GalNAc
How it was run: as §1

[28] = molecular target: Fuc(a1-2)[Gal(a1-3)]Gal(b1-4)Glc
How it was run: as §1

[29] = molecular target: Fuc(a1-2)[Gal(a1-3)]Gal(b1-4)GlcNAc
How it was run: as §1

[30] = molecular target: Fuc(a1-2)[Gal(a1-3)]Gal(b1-4)GlcNAc(b1-2)Man
How it was run: as §1

B1: SabA (Helicobacter pylori) (protein)
chain: MGSSHHHHHHSSGLVPRGSHMENLYFQGEDNGFFVSAGYQIGEAVQMVKNTGELKNLNEKYEQLSQYLNQVASLKQSIQNANNIELVNSSLNYLKSFTNNNYNSTTQSPIFNAVQAVITSVLGFWSLYAGNYFTFFVGKKVGDSGQPASVQGNPPFKTIIENCSGIENCAMDQTTYDKMKKLAEDLQAAQTNSATKGNNLCALSGCAATDSTSNPPNSTVSNALNLAQQLMDLIANTKTAMMWKNIVISGVSNTSGAITSTNYPTQYAVFNNIKAMIPILQQAVTLSQSNHTLSASLQAQATGSQTNPKFAKDIYTFAQNQKQVISYAQDIFNLFNSIPAEQYKYLEKAYLKIPNAGSTPTNPYRQVVNLNQEVQTIKNNVSYYGNRVDAALSVARDVYNLKSNQAEIVTAYNDAKTLSEEISKLPHNQVNTKDIVTLPYDKNAPAAGQSNYQINPEQQSNLNQALAAMSNNPFKKVGMISSQNNNGA
glycan array binding signal (z-score) [1]: 0.579
glycan array binding signal (z-score) [2]: -0.249
glycan array binding signal (z-score) [3]: 0.238
glycan array binding signal (z-score) [4]: 0.517
glycan array binding signal (z-score) [5]: -0.656
glycan array binding signal (z-score) [6]: -0.198
glycan array binding signal (z-score) [7]: -0.069
glycan array binding signal (z-score) [8]: -0.472
glycan array binding signal (z-score) [9]: -0.199
glycan array binding signal (z-score) [10]: 0.216
glycan array binding signal (z-score) [11]: -0.91
glycan array binding signal (z-score) [12]: -0.728
glycan array binding signal (z-score) [13]: 2.43
glycan array binding signal (z-score) [14]: -0.245
glycan array binding signal (z-score) [15]: -0.692
glycan array binding signal (z-score) [16]: -0.748
glycan array binding signal (z-score) [17]: 3.74
glycan array binding signal (z-score) [18]: 0.534
glycan array binding signal (z-score) [19]: 0.738
glycan array binding signal (z-score) [20]: -0.033
glycan array binding signal (z-score) [21]: 0.111
glycan array binding signal (z-score) [22]: 0.168
glycan array binding signal (z-score) [23]: -0.4
glycan array binding signal (z-score) [24]: 0.056
glycan array binding signal (z-score) [25]: 1.23
glycan array binding signal (z-score) [26]: -0.109
glycan array binding signal (z-score) [27]: 0.249
glycan array binding signal (z-score) [28]: 0.498
glycan array binding signal (z-score) [29]: -0.42
glycan array binding signal (z-score) [30]: -0.411
